From patent US20240124883 come the findings set out here.

The target of data set [1] is alpha-synuclein 107 fibrils (C-terminally truncated) (Homo sapiens) (UniProt P37840). Description: binding assay. The settings on record: slot blot; purified recombinant protein; protein details: untagged, E. coli BL21(DE3) pET3a, fibrils; label: biotin; single-stranded DNA.
Data set [2] deals with alpha-synuclein 107 monomer (C-terminally truncated) (Homo sapiens) (UniProt P37840). The experiment in a line: binding assay. The settings on record: slot blot, fibril-specific, PBST 4 C; purified recombinant protein; label: biotin; single-stranded DNA.
In data set [3] the target is alpha-synuclein 115 fibrils (C-terminally truncated) (Homo sapiens) (UniProt P37840). The experiment in a line: binding assay. The settings on record: slot blot; purified recombinant protein; protein details: untagged, E. coli BL21(DE3) pET3a, fibrils; label: biotin; single-stranded DNA.
Data set [4] has as its target alpha-synuclein 115 monomer (C-terminally truncated) (Homo sapiens) (UniProt P37840). The experiment in a line: binding assay. Particulars: slot blot, fibril-specific, PBST 4 C; purified recombinant protein; label: biotin; single-stranded DNA.
For data set [5], the target named is alpha-synuclein 122 fibrils (C-terminally truncated) (Homo sapiens) (UniProt P37840). The experiment in a line: binding assay. Particulars: slot blot, PBST, 4 C overnight; purified recombinant protein; protein details: untagged, E. coli BL21(DE3) pET3a, fibrils; label: biotin; single-stranded DNA.
Data set [6] has as its target alpha-synuclein 122 monomer (Homo sapiens) (UniProt P37840). The experiment in a line: binding assay. Particulars: slot blot; binds only fibril forms; purified recombinant protein; protein details: untagged, E. coli BL21(DE3) pET3a; label: biotin; single-stranded DNA.
Data set [7] deals with alpha-synuclein 130 fibrils (C-terminally truncated) (Homo sapiens) (UniProt P37840). Description: binding assay. Particulars: slot blot; purified recombinant protein; protein details: untagged, E. coli BL21(DE3) pET3a, fibrils; label: biotin; single-stranded DNA.
Data set [8] addresses alpha-synuclein 130 monomer (C-terminally truncated) (Homo sapiens) (UniProt P37840). The experiment in a line: binding assay. The settings on record: slot blot, fibril-specific, PBST 4 C; purified recombinant protein; label: biotin; single-stranded DNA.
In data set [9] the target is alpha-synuclein 140 fibrils (full length) (Homo sapiens) (UniProt P37840). The experiment in a line: binding assay. The settings on record: slot blot; purified recombinant protein; protein details: untagged, E. coli BL21(DE3) pRK172, fibrils; label: biotin; single-stranded DNA.
Data set [10] addresses alpha-synuclein 140 monomer (full length) (Homo sapiens) (UniProt P37840). The experiment in a line: binding assay. The settings on record: slot blot; purified recombinant protein; protein details: untagged, E. coli BL21(DE3) pRK172; label: biotin; single-stranded DNA.
Data set [11] relates to amyloid Bri (ABri) fibrils. Description: binding assay. Particulars: slot blot; label: biotin; single-stranded DNA.
The target of data set [12] is amyloid Bri (ABri) monomer (UniProt Q9Y287). The experiment in a line: binding assay. The settings on record: slot blot, specificity control; purified recombinant protein; label: biotin; single-stranded DNA.
Data set [13] addresses amyloid beta 42 (Abeta42) fibrils (UniProt P05067). Description: binding assay. The settings on record: slot blot; label: biotin; single-stranded DNA.
Data set [14] addresses amyloid beta 42 (Abeta42) monomer (UniProt P05067). The experiment in a line: binding assay. Particulars: slot blot, specificity control; purified recombinant protein; label: biotin; single-stranded DNA.
For data set [15], the target named is beta-synuclein (monomers and fibrils) (UniProt Q16143). The experiment in a line: binding assay. Particulars: slot blot; label: biotin; single-stranded DNA.
Data set [16] addresses gamma-synuclein (monomers and fibrils) (UniProt O76070). The experiment in a line: binding assay. The settings on record: slot blot; label: biotin; single-stranded DNA.
Data set [17] concerns the target islet amyloid polypeptide (IAPP) fibrils (UniProt P10997). The experiment in a line: binding assay. Particulars: slot blot; label: biotin; single-stranded DNA.
The target in data set [18] is islet amyloid polypeptide (IAPP) monomer (UniProt P10997). Description: binding assay. The settings on record: slot blot, specificity control; purified recombinant protein; label: biotin; single-stranded DNA.
A further data set concerns tubulin. The experiment in a line: binding assay. The settings on record: slot blot; negative control protein; label: biotin; single-stranded DNA.
Data set [19] has as its target alpha-synuclein (wild type, expressed in HEK293 with alpha-syn 122 seeds) (Homo sapiens) (UniProt P37840). The experiment in a line: activity in cells. The settings on record: decreases insoluble pS129-alpha-syn in HEK cells with alpha-syn 122 seeds, seed:aptamer 1:1 and 1:5; protein in cells; protein details: seeds are recombinant alpha-syn 1-122; single-stranded DNA; dose not given here.

The target of data set [20] is alpha-synuclein 122 fibrils (C-terminally truncated) (Homo sapiens) (UniProt P37840). Description: inhibition of the protein. The settings on record: inhibits alpha-syn 122 seeded aggregation of alpha-syn 140 (Th-S, EM, western) at seed:aptamer 1:1, 1:5, 1:20, 37 C, stronger than Apt15, purified recombinant protein, protein details: untagged, E. coli BL21(DE3) pET3a, label: biotin, single-stranded DNA, dose not given here.

For part of these data: No signal at the amounts used counts as a negative. For part of these data: For at least one entry, the source does not settle the construct or the ends of the probe.

In the case of “CTGACACTCGGCTTTTTATCTTCCCTGCTTCGGTCCTGTC [Apt11]”, the binding result is recorded as “binds” in data set [1]; “no binding” in data set [2]; “binds” in [3]; “no binding” in [4]; “binds” in data set [5]; “no binding” in [6]. Moreover, the binding result is “binds” in data set [7]; “no binding” in data set [8]; “no binding” in data set [9]; “no binding” in data set [10]; “no binding” in data set [11]; “no binding” in [12]. Moreover, the binding result in [13], in [14], in data set [15], in [16], in data set [17] and in [18] was “no binding” in each case. For the same sequence, in the data set on tubulin, the binding result is on record as “no binding”. The “functional effect of the aptamer” value in [19] and in data set [20] was “active” each time.
